Data source: PubChem BioAssay AID1259308 (NCATS, 2017)
Screen: 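Candidate targets for better recombinant protein yield in mammalian cells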 (primary screen). Cells: human HEK293 embryonic kidney cells stably expressing firefly luciferase (HEK-CMV-Luc2-Hygro). Reagent: single siRNA against human genes, 0.8 pmol siRNA per well. Timing: 72 h. Read-out: 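Luciferase light (ONE-Glo) measured on one replicate plate set and viability (CellTiter-Glo) on the other, scaled to a negative control siRNA, with robust z-scores and luciferase per cell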. Scale: total luciferase, z-score: higher = more reporter protein produced. Call rule: 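Active when the median/MAD z-score for overall luciferase is greater than 3; a gene was taken forward for validation with new siRNAs if at least two of its three siRNAs passed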. Calls: active = raised luciferase; inactive = no rise.
The whole screen tested about 59,000 reagents; shown is a part drawn at random. Of all reagents, about 1,510 (2.6%) were called active. 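Calls use total luciferase alone and ignore viability, so some active siRNAs may act by altering cell number.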 Entries without a mark were called inactive. The numbers tell different reagents against one gene apart. Not all columns of the deposit are shown.

total luciferase, z-score, by target gene and reagent
TULP3: #1 1.86; #2 0.379; #3 -2.18
TBC1D7: #1 0.586; #2 -1.07; #3 0.783
HELQ: #1 0.203; #2 0.612; #3 -1.94
ZNF891: #1 0.142; #2 -1.39; #3 0.235
LSM2: #1 0.0211; #2 3.38 (active); #3 1.17
KLHL3: #1 0.759; #2 1.91; #3 0.76
UNC93B1: #1 0.478; #2 3.22 (active); #3 1.02
MPP2: #1 3.42 (active); #2 1.07; #3 -0.461
TGFB2-AS1: #1 0.0873; #2 0.333; #3 1.49
C3orf18: #1 0.249; #2 1.51; #3 -0.856
NCOA3: #1 0.588; #2 -0.785; #3 1.38
PCDHB5: #1 0.14; #2 0.57; #3 -1.45
DNMBP: #1 1.14; #2 0.738; #3 0.229

Records listed so far whose gene name starts with D or d:
total luciferase, z-score, by target gene and reagent
DNMBP: #1 1.14; #2 0.738; #3 0.229
